# Measured values: patent US20050227251
# The exact form of at least one protein or probe is not confirmed. At least one result comes from cells or an extract, where the contact may be indirect.
# Tested on: neuronal Hu proteins (endogenous, immunoprecipitated)
# Assay: binding assay
# Settings: UV cross-linking and immunoprecipitation (CLIP); one of SEQ 336-449; protein in cells
sequence,measurement,value
AAACCAGUCCUUCCCUCCCAGCCAUUGCCAGGUGCCACCCGCUAAG [Hu CLIP fragment SEQ 336],binding result,binds
